# Results: patent US9157122B2, “Method of diagnosing cancer and reagents therefor” (Garvan Institute of Medical Research, priority 2004, dated 2015)
# Some of these results come from one statement about several compounds together.
# System: HCT116 cells
# Test: Real-time RT-PCR gene expression in HCT116 cells treated with 5-Aza-2′-deoxycytidine and/or TSA
# Format: cell-based, human
# Conditions: 0.5 μm 5-aza-dC 24 h, TSA 24 h, co-treatment 5-aza-dC 24 h then TSA 24 h, normalised to 18S RNA, FIG. 16a
# Experimental: RNA was extracted using Trizol reagent (Invitrogen) according to the manufacturer's protocol. cDNA was reverse transcribed from 2 μg of total RNA using SuperScriptTM III RNase H^- Reverse Transcriptase (Invitrogen Life technologies), according to the manufacturer's instructions. The reaction was primed with 200 ng of random hexamers (Roche). The reverse transcription reaction was then diluted 1:20 with sterile H2O before addition to a PCR reaction. […] The primers used for amplification comprise a sequence set forth in any one of SEQ ID Nos 119 to 218. Primers were used in a combination described herein. To control for the amount and integrity of the RNA, the Human 18S ribosomal RNA (rRNA) kit (P/N 4308329) (Applied Biosystems), containing the rRNA forward and reverse primers and rRNA VICTM probe, was used. […] The reactions were performed in triplicate and the standard deviation was calculated using the Comparative method (ABI PRISM 7700 Sequence Detection system User Bulletin #2, […] 4303859). The cycle number corresponding to where the measured fluorescence crosses a threshold is […] to the amount of starting material. […] Expression levels of the genes DDX18, INSIG2, EN1, MARCO, PTPN4, RALBB, GLI2 and TSN was determined essentially as described above.
structure (smiles),measurement,value
"Nc1ncn([C@H]2C[C@H](O)[C@@H](CO)O2)c(=O)n1 [5AzaC, 5-Aza-2′-deoxycytidine]",p21 expression activated (control gene),more than 2 fold
